Like-named read-outs stand apart in the source and are kept apart here. The name of at least one read-out is uncertain.
Tested on: trachea
Assay: Bronchodilator activity: relaxation of isolated tracheal spirals, relative to isoprenaline maximum
Type: cell-based, guinea pigs
Conditions: guinea pig tracheal spirals, resting tension 2g, fall in tension as percentage of relaxation by 10⁻³M isoprenaline, n=2, read-out: IC₅₀
Protocol: Male guinea pigs (300-600g) were stunned by a blow to the head and bled from the carotid artery. The trachea was exposed, dissected free of connective tissue, and transferred to oxygenated Krebs solution at 37 °C. Next, spirals (2 per trachea) were prepared by cutting the whole trachea spirally along its longitudinal axis and then dividing this spiral lengthwise. Each preparation was mounted, using silk thread, in a 10ml organ bath filled with Krebs solution at 37 °C and bubbled with 5% CO₂ with O₂. The resting tension of the preparations was set at 2g and changes in muscle tension were monitored isometrically by means of a UFI (2oz) force and displacement transducer (Ormed Ltd) connected to a Linseis pen recorder. All preparations were allowed to equilibrate for 60 minutes. During this equilibration period the preparations were washed by upward displacement at 15 minute intervals and, if necessary, the resting tension was readjusted to 2g using a mechanical micromanipulator system.
Once a steady resting tension had been obtained, the preparations were dosed simultaneously with the test compound (10⁻⁸-2x10⁻⁵M), and finally a maximum relaxation achieved by addition of 10⁻³M isoprenaline. The fall in tension evoked by the test compound was expressed as a percentage of the total relaxation evoked in the presence of 10⁻³ isoprenaline. […]

CC1(C)Oc2ccc(C#N)cc2[C@@H](Nc2cc(Cl)ncn2)[C@@H]1O (racemic) [El, Trans-6-cyano-4-[(6-chloropyrimidin-4-yl)amino]-3,4-dihydro-2,2-dimethyl-2H-1-benzopyran-3-ol]
IC50 (listed as El*): 0.51 µM | IC50: 1.5 µM

Source: EP0431741A2, “Substituted pyrimidineamino compounds” (Beecham Group p.l.c., priority 1989, dated 1991)
